Results as given in paper PMC5300155, “Biochemical and biophysical investigations of the interaction between human glucokinase and pro-apoptotic BAD” (PLoS ONE, 2017).

The chains behind the UniProt entries cited, without tags or fusion partners. Where a name states a change or a piece, a line headed by the entry shows the natural chain unless it says otherwise.
UniProt Q92934: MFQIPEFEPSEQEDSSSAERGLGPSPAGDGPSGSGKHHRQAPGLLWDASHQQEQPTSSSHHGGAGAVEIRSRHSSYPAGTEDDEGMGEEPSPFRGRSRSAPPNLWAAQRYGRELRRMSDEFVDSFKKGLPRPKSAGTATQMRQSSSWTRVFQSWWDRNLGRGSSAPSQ

Biological target: T1, FITC-labeled 21-residue peptide containing the BH3 domain of BAD (human)
T1 sequence (peptide, FITC on the lysine at peptide position 18 (K(FITC))): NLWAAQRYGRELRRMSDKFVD
Assay: fluorescence polarisation; high concentrations of BAD-GST added to the f-BH3 peptide; conditions not given; both purified

In the case of “recombinant human BAD-GST fusion polypeptide (from UniProt Q92934)”, the binding is reported as “no binding”.

Results are given in words; binding and its absence hold for the method and conditions named.
